Experimental data: article PMC7819943, “Rice protein-binding microarrays: a tool to detect cis-acting elements near promoter regions in rice”
This is one part of the list.

Sequences of proteins named here, by UniProt entry; tags and fusion partners are left off.
UniProt Q0JBA9, entry or part of it: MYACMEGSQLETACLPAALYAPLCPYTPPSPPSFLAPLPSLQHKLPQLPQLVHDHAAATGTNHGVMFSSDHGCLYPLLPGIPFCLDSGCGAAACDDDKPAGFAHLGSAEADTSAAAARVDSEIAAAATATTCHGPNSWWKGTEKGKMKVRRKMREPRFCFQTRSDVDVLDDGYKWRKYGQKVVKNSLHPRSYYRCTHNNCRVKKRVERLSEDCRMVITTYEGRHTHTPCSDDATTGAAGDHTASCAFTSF

Molecular target: OsWRKY34 (Oryza sativa, UniProt Q0JBA9 1-250)
Experiment: protein-binding microarray (RPBM); PBS, 2% BSA, 51.3 ng/ul salmon testes DNA, 50 uM zinc acetate, 200 nM TF, 25 C, 1 h; high values mean tight binding
Settings: protein: recombinant; tags: N-terminal polyhistidine and DsRed monomer fusion (pET32a); label: CyDye5-dUTP incorporated in the synthesized complementary strand; 3' TTTTT single-stranded linker to array surface; dsDNA, one strand shown
Procedure, shortened: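 For the binding signal, per-feature fluorescence intensity was read in arbitrary units on an Axon 4000B scanner. Before scanning, a 2% BSA-blocked custom Agilent array made double-stranded with Cy5-dUTP was washed after 1 h at 25 °C with 200 nM protein and 50 µM zinc acetate. The proteins were Ni–NTA-purified transcription factors with N-terminal polyhistidine and DsRed fusions, expressed in E. coli BL21-CodonPlus.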

First: TTGTGGATTTTTTTTTTTTGAGAGGGATGGGTGTTTGATTCGGAGTCACCTAGTGCAG
Second: TATCCGTTCTAGCGAGGGACCAAATTTCTCACCAGATTTCCGGAGTCACCTAGTGCAG
The binding signal of the first is higher: 10900 fluorescence intensity (a.u.) for the first, 8700 fluorescence intensity (a.u.) for the second.

First: TTGCCAACATGTATACCCGTCGGATTAGTTGACCGTGAAACGGAGTCACCTAGTGCAG
Second: CAATCCCTCCTTGGACTCCGGCCACGATCAGCTCCTCGGCCGGAGTCACCTAGTGCAG
The binding signal of the first is higher: 10800 fluorescence intensity (a.u.) for the first, 8310 fluorescence intensity (a.u.) for the second.

First: GGGAGAGGGGTGTGGGGCGGAGAGGGAGAGGGAGATGGGACGGAGTCACCTAGTGCAG
Second: GTGGAGCTATACCTTCTACTCTCAGCAATTGTCCTTTAGACGGAGTCACCTAGTGCAG
The binding signal of the first is higher: 9680 fluorescence intensity (a.u.) for the first, 9460 fluorescence intensity (a.u.) for the second.

Compared with “AGGGTCGAGAGTTACAATTATGCATGTGTATCTATGTGTTCGGAGTCACCTAGTGCAG”, “CCCTCCACATGACATCACCCCTCGCGCGGCTGCTGCTCTCCGGAGTCACCTAGTGCAG” is higher in binding signal: 8310 fluorescence intensity (a.u.) for the first, 8420 fluorescence intensity (a.u.) for the second.

Compared with “CGCTTTTGGGCAGCAAGGCAAGAATATTACTTGCCTTCCACGGAGTCACCTAGTGCAG”, “GATCAATTGTTGTCGGTGATCATACATTGTCTGTCTTGGACGGAGTCACCTAGTGCAG” is lower in binding signal: 9460 fluorescence intensity (a.u.) for the first, 8030 fluorescence intensity (a.u.) for the second.

Going from “GGATTGGTATCGTTTCGACTTGATAAAATCATAGTATTATCGGAGTCACCTAGTGCAG” to “TTACTTGCTATTGTGATACAAGGTATTTTGCCAATCATCTCGGAGTCACCTAGTGCAG”, the binding signal rises from 8460 fluorescence intensity (a.u.) to 8520 fluorescence intensity (a.u.).

Compared with “TGGTTGCACGCGATTTAATTATGCTTGTTTTATTACTTCACGGAGTCACCTAGTGCAG”, “AGCCGATAAATCAAGCGCCCGCTTTTCTCTTTCCTTGCATCGGAGTCACCTAGTGCAG” is lower in binding signal: 10100 fluorescence intensity (a.u.) for the first, 8190 fluorescence intensity (a.u.) for the second.

First: GCTCACAGCTCGCTCACTCGCTCTCCTCTTCCAACCAACTCGGAGTCACCTAGTGCAG
Second: TTTTCCTCCGGCGACTGTTATACTCTGGCCACTTCCTTCCCGGAGTCACCTAGTGCAG
The binding signal of the first is lower: 8560 fluorescence intensity (a.u.) for the first, 9530 fluorescence intensity (a.u.) for the second.

Going from “TTCTCTTGCCCCATACCCACACCCACCATATCTAAATACTCGGAGTCACCTAGTGCAG” to “TTAAGCAGTAAAGTGGGTAGTTTTCAATAGTTTAGAGGATCGGAGTCACCTAGTGCAG”, the binding signal rises from 8250 fluorescence intensity (a.u.) to 8500 fluorescence intensity (a.u.).

First: TCTAGTTATTTTACACGTTATTTTTTTTGTTATCATATTACGGAGTCACCTAGTGCAG
Second: TCTATGCTTGCTTTGTCCTCGAAACTAACTGCCATTCTGCCGGAGTCACCTAGTGCAG
The binding signal of the first is higher: 12600 fluorescence intensity (a.u.) for the first, 8280 fluorescence intensity (a.u.) for the second.

First: AGAGGAGGAAGAAGAGGAGGGGTGACAATGATATGTGGGGCGGAGTCACCTAGTGCAG
Second: TGGGTGGGGATGAAGTGTGGAAGTGGCATATCTTTATCCACGGAGTCACCTAGTGCAG
The binding signal of the first is higher: 10100 fluorescence intensity (a.u.) for the first, 8320 fluorescence intensity (a.u.) for the second.

Going from “ACTGGCCAATATCCCCAACTTTTCTTCTTTTTTTTCTTTCCGGAGTCACCTAGTGCAG” to “GGGGTATGAGGAGGTGGGGCGACGTGGGACGTAGCTGGGTCGGAGTCACCTAGTGCAG”, the binding signal falls from 9610 fluorescence intensity (a.u.) to 9390 fluorescence intensity (a.u.).

Going from “GATCTGCATGAAATGCGCTGGCCACATTTGTCGTTGTCACCGGAGTCACCTAGTGCAG” to “AACTACGCGTTCAATCCATGTTTCATCACATTAAGGTTCCCGGAGTCACCTAGTGCAG”, the binding signal rises from 8750 fluorescence intensity (a.u.) to 11800 fluorescence intensity (a.u.).

Compared with “AAACGCGTCCAGCTCATCGTCGCCGGCGCCTCGTTTCACCCGGAGTCACCTAGTGCAG”, “CGTTGACTTTTTAGCACATGTTTGACCGTTCGTCTTATTCCGGAGTCACCTAGTGCAG” is higher in binding signal: 8450 fluorescence intensity (a.u.) for the first, 29000 fluorescence intensity (a.u.) for the second.

Going from “ACTTTTCTTCCATCCATCCATCCATCCATTTGATTCAAGACGGAGTCACCTAGTGCAG” to “AGCAGCAAAGGGGCGGTGGGTTCTTTGTCTCTCTCTCTCGCGGAGTCACCTAGTGCAG”, the binding signal rises from 11400 fluorescence intensity (a.u.) to 11800 fluorescence intensity (a.u.).

Compared with “TATATGTTTCCATGTCTAACGTCGTTTAACTATCCGTCTTCGGAGTCACCTAGTGCAG”, “CAACACCCGTCCGCCAGAGAAGACCATCGTGACGCCACTCCGGAGTCACCTAGTGCAG” is higher in binding signal: 9210 fluorescence intensity (a.u.) for the first, 10500 fluorescence intensity (a.u.) for the second.

Compared with “CCGCGTACGCGTACGTATAACCTCGCGTCTTTACAGTCTACGGAGTCACCTAGTGCAG”, “CACCCAGAGCCCACGACCCGACTCGACCGACGCGCGCTGTCGGAGTCACCTAGTGCAG” is higher in binding signal: 8510 fluorescence intensity (a.u.) for the first, 8710 fluorescence intensity (a.u.) for the second.

Going from “CTATCCTGCACTGAAGCCATCGGTCAAATTATCCAAATTACGGAGTCACCTAGTGCAG” to “ACCCTAGAGTTGCCCTAGCCCGCTTCGCCGGCGGCCGCCACGGAGTCACCTAGTGCAG”, the binding signal rises from 8360 fluorescence intensity (a.u.) to 10400 fluorescence intensity (a.u.).

First: TCGGGGCGGTGGGGAGGTTTGAGGTTAGTCATGGACTGTGCGGAGTCACCTAGTGCAG
Second: GGTTACTATTTATTTGACCTATGTGGGTTGACCCACTTTGCGGAGTCACCTAGTGCAG
The binding signal of the first is higher: 12500 fluorescence intensity (a.u.) for the first, 9750 fluorescence intensity (a.u.) for the second.

Compared with “TACTTATACCGTTCACTTCTTAACACATATTTGACTATTTCGGAGTCACCTAGTGCAG”, “CCATCGCTTCGTCTGGTCGTTTCGTCTGGCAACGCCGCCGCGGAGTCACCTAGTGCAG” is lower in binding signal: 10600 fluorescence intensity (a.u.) for the first, 8180 fluorescence intensity (a.u.) for the second.

Compared with “CCCGAGTCTTTAATCACTTTTGCTTACGTGTATGGTTAGGCGGAGTCACCTAGTGCAG”, “GACTGAGCTTTGTGGGTGGGTTGGTTGGTTGGTTATACAACGGAGTCACCTAGTGCAG” is higher in binding signal: 10200 fluorescence intensity (a.u.) for the first, 30500 fluorescence intensity (a.u.) for the second.
